Measurements: patent US5856303A, “Peptide, a bronchus-expanding agent, and a blood-flow-improving agent” (Itoham Foods, Inc., priority 1995, dated 1999)
Part of at least one peptide drawing is inferred or uncertain, most often the ends. Ends that are not written are not given here.

What was measured:
Wistar male rats = assay: Blood-flow increasing action in anesthetized rats (femoral artery blood flow, carotid blood pressure); type: in vivo; conditions: 100 pmol/kg intraarterially, right femoral artery
Method: Purified peptides 1 to 15 obtained in Examples 1 to 15 were examined for their blood-flow increasing action and compared with those of VIP and PACAP. Wistar male rats each weighing 220 to 250 g were anesthetized by intraperitoneal administration of pentobarbital (25 mg/kg) and fixed on their back. An arterial canula was inserted into the carotid and then connected to a blood-pressure transducer (DX-300, Nippon Koden, Japan) via a doom kit (SCK-512, Nippon Koden) filled with heparin-containing physiological saline (10 U/ml) to measure blood pressure with a strain blood-pressure amplifier (AP-601G, Nippon Koden). Further, a blood-flow measurement probe (FR-030T, Nippon Koden) was attached to the right femoral artery and then connected to an electromagnetic blood-flow meter (MFV-3200, Nippon Koden) to measure blood flow. The dosage of each peptide intraarterially administrated was 100 pmol/kg.

bronchial smooth muscle = assay: Bronchus-expanding action: relaxation of carbachol-contracted guinea pig tracheal chain in organ bath; type: cell-based, guinea pigs; conditions: 0.1 μmol/l carbachol-contracted trachea
Text: Purified peptides 1 to 15 obtained in Examples 1 to 15 were examined for their bronchus-expanding action in the following manner and compared with that of VIP and PACAP.
Male guinea pigs each weighing 450 to 500 g were cut at the jugular veins to open the chests, and immediately the tracheae were immediately removed. Their tracheae were immediately placed in a Krebs solution and cut into loops and then formed into a chain by linking the cartilage parts with one another via a steel string. Then, the cartilage parts in the opposite side to the smooth muscular parts were cut such that the smooth muscular parts were attached to one another. The resulting sample was placed in an about 10-ml isothermic organ bath and perpendicularly suspended. The lower part was fixed and the upper part was connected to a grass force transducer with a load of 1.4 g. A gas of 94% oxygen and 6% carbon dioxide was sufficiently blown into this sample while a Krebs solution containing 0.1μ mol/l carbachol was dropped to it at a rate of 0.33 ml/min. to determine relaxation action. Because the relaxation reaction occurs depending on the content of a test sample in this drop solution, this can be used to compare the relaxation action of VIP and PACAP and that of the peptides of the invention on the bronchial smooth muscle.
A solution of each of […], PACAP and the peptides of the invention was prepared in a concentration as high as 100-fold than the final concentration so that its concentration in the organ bath could be adjusted. 30 minutes after the carbachol-containing Krebs solution was dropped, 100 μl of the sample solution was dropped.
It was assumed that the degree of contraction of the smooth muscle is 0 in the absence of carbachol and the degree is 100 in the presence of carbachol. Minimum contraction degree A (i.e. maximum relaxation value) in the presence of the sample was determined, and maximum relaxation degree B was calculated as follows:
Maximum relaxation degree B (%)=100-A
The time required to reach half of the maximum relaxation value (referred to hereinafter as "half-time T") after the addition of the sample was determined.
A change in the relaxation degree of the bronchial smooth muscle with time was determined using each peptide at 3 dosages of 0.3 μM, 1 μM, and 3 μM respectively. The results are shown in the drawings: PACAP in FIG. 1; peptide 5 obtained in Example 5, in FIG. 2; VIP in FIG. 3; and peptide 11 obtained in Example 11, in FIG. 4. The maximum relaxation degree B at a dosage of 3 μM is 75% for peptide 5 and 80% for peptide 11, and half-time T is 360 minutes or more in both the cases.

For “HSDGIFTDSYSRYRRQMAVRRYLAAVL-NH2 [Peptide 14]”, the “Blood Flow (increase in blood flow)” value (Wistar male rats) was 52.92 ± 32.12 mL/min, the “Half-time T (time required to reach half of the maximum relaxation value)” value (“Half-time T” for short) (bronchial smooth muscle; 0.3 μM) was 100 min and the “Maximum relaxation degree B” value (bronchial smooth muscle; 0.3 μM) was 40%. For the same substance, the “Half-time T” value (bronchial smooth muscle; 1 μM) was 240 min, the “Maximum relaxation degree B” value (bronchial smooth muscle; 1 μM) was 80% and the “Half-time T” value (bronchial smooth muscle; 3 μM) was greater than 360 min. The “Maximum relaxation degree B” value (bronchial smooth muscle; 3 μM) was 85%.
